Values from PubChem BioAssay AID1259405 (NCATS, 2018)
Screen: 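Silenced genes that increase secreted GFP made by CHO cells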 (primary screen). System: Chinese hamster CHO-K1 ovary cells with stable secreted eGFP expression. Reagents: single siRNA against mouse genes, 0.8 pmol siRNA per well (2 µl of 400 nM stock). Timing: 3 days. Measured: 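Percent of the per-plate non-targeting control median for intracellular GFP per well by laser scanning cytometry and for cell viability by ATP luminescence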. Reading the numbers: GFP, % of control: higher = more GFP per well, higher productivity; viability (ATP), % of control: higher = more viable cells (more ATP). Active means: 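Called active when intracellular GFP, relative to negative control, is at or above 120%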.
The whole screen tested about 50,000 reagents; this is an unselected part. Over the whole deposit, about 4,000 (8%) got an active call. 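Mouse siRNA library applied to hamster cells; one well for each siRNA.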 Reagents against one gene are numbered here.

Gene | reagent | GFP, % of control | viability (ATP), % of control | Call
Ugt2b5 (UDP glucuronosyltransferase 2 family, polypeptide B5) | 1 | 88.9 | 88.2 | inactive
Ugt2b5 (UDP glucuronosyltransferase 2 family, polypeptide B5) | 2 | 67.7 | 96.7 | inactive
Ugt2b5 (UDP glucuronosyltransferase 2 family, polypeptide B5) | 3 | 73.4 | 56.7 | inactive
Gm5082 (predicted gene 5082) | 1 | 74.9 | 51 | inactive
Gm5082 (predicted gene 5082) | 2 | 77.1 | 43.3 | inactive
Gm5082 (predicted gene 5082) | 3 | 107 | 77.3 | inactive
Pate4 (prostate and testis expressed 4) | 1 | 91.5 | 112 | inactive
Pate4 (prostate and testis expressed 4) | 2 | 110 | 119 | inactive
Pate4 (prostate and testis expressed 4) | 3 | 177 | 121 | active
Krt72 (keratin 72) | 1 | 50 | 35.1 | inactive
Krt72 (keratin 72) | 2 | 57.5 | 60.7 | inactive
Krt72 (keratin 72) | 3 | 75.1 | 56.8 | inactive
Wasf2 (WASP family, member 2) | 1 | 72 | 98.3 | inactive
Wasf2 (WASP family, member 2) | 2 | 55.3 | 45.1 | inactive
Wasf2 (WASP family, member 2) | 3 | 119 | 73.2 | inactive
Pcdhb4 (protocadherin beta 4) | 1 | 90.8 | 91.2 | inactive
Pcdhb4 (protocadherin beta 4) | 2 | 70.2 | 80.1 | inactive
Pcdhb4 (protocadherin beta 4) | 3 | 86 | 80 | inactive
Itpa | 1 | 65.1 | 38.9 | inactive
Itpa | 2 | 74.5 | 72.4 | inactive
Itpa | 3 | 60.6 | 64.2 | inactive
Psap (prosaposin) | 1 | 69.2 | 108 | inactive
Psap (prosaposin) | 2 | 72.9 | 58.3 | inactive
Apobec3 | 1 | 58.3 | 62.3 | inactive
Apobec3 | 2 | 64.9 | 88.3 | inactive
Apobec3 | 3 | 79.8 | 109 | inactive
Or4k45 (olfactory receptor family 4 subfamily K member 45) | 1 | 154 | 94.4 | active
Or4k45 (olfactory receptor family 4 subfamily K member 45) | 2 | 122 | 82.3 | active
Or4k45 (olfactory receptor family 4 subfamily K member 45) | 3 | 89.7 | 87.9 | inactive
Selenon (selenoprotein N) | 1 | 168 | 68 | active
Selenon (selenoprotein N) | 2 | 74.2 | 75.1 | inactive
Selenon (selenoprotein N) | 3 | 78.8 | 75.1 | inactive
Slc36a1 | 1 | 96.8 | 55.6 | inactive
Slc36a1 | 2 | 55.9 | 70.3 | inactive
Slc36a1 | 3 | 68.5 | 77.9 | inactive
Crtc2 (CREB regulated transcription coactivator 2) | 1 | 132 | 71.1 | active
Crtc2 (CREB regulated transcription coactivator 2) | 2 | 46.7 | 78.2 | inactive
Crtc2 (CREB regulated transcription coactivator 2) | 3 | 36.3 | 75.8 | inactive
Sgce (sarcoglycan, epsilon) | 1 | 107 | 62.7 | inactive
Sgce (sarcoglycan, epsilon) | 2 | 69.9 | 79.4 | inactive
Sgce (sarcoglycan, epsilon) | 3 | 91.3 | 93.2 | inactive
Zmpste24 (zinc metallopeptidase, STE24) | 1 | 94.2 | 102 | inactive
Zmpste24 (zinc metallopeptidase, STE24) | 2 | 115 | 68.1 | inactive
Zmpste24 (zinc metallopeptidase, STE24) | 3 | 69.8 | 67.3 | inactive
Nap1l1 (nucleosome assembly protein 1-like 1) | 1 | 187 | 88.9 | active
Nap1l1 (nucleosome assembly protein 1-like 1) | 2 | 53.8 | 55.6 | inactive
Nap1l1 (nucleosome assembly protein 1-like 1) | 3 | 70.8 | 82.2 | inactive
Usp17ld (ubiquitin specific peptidase 17-like D) | 1 | 118 | 121 | inactive
Usp17ld (ubiquitin specific peptidase 17-like D) | 2 | 78.5 | 44.4 | inactive
Usp17ld (ubiquitin specific peptidase 17-like D) | 3 | 103 | 81.4 | inactive
Rimoc1 (RAB7A interacting MON1-CCZ1 complex subunit 1) | 1 | 51.5 | 65.6 | inactive
Rimoc1 (RAB7A interacting MON1-CCZ1 complex subunit 1) | 2 | 56 | 61.4 | inactive
Rimoc1 (RAB7A interacting MON1-CCZ1 complex subunit 1) | 3 | 73.1 | 68.3 | inactive
Necap2 (NECAP endocytosis associated 2) | 1 | 71.8 | 67.5 | inactive
Necap2 (NECAP endocytosis associated 2) | 2 | 101 | 79.5 | inactive
Necap2 (NECAP endocytosis associated 2) | 3 | 62.5 | 95.1 | inactive
Zfp759 (zinc finger protein 759) | 1 | 68.9 | 83.9 | inactive
Zfp759 (zinc finger protein 759) | 2 | 43.4 | 64.2 | inactive
Zfp759 (zinc finger protein 759) | 3 | 106 | 88 | inactive

4 entries from above, sorted by “viability (ATP), % of control”, high to low.
Gene | reagent | GFP, % of control | viability (ATP), % of control | Call
Usp17ld (ubiquitin specific peptidase 17-like D) | 3 | 103 | 81.4 | inactive
Rimoc1 (RAB7A interacting MON1-CCZ1 complex subunit 1) | 3 | 73.1 | 68.3 | inactive
Rimoc1 (RAB7A interacting MON1-CCZ1 complex subunit 1) | 1 | 51.5 | 65.6 | inactive
Rimoc1 (RAB7A interacting MON1-CCZ1 complex subunit 1) | 2 | 56 | 61.4 | inactive
